# Reference: patent publication US20100003190A1, “Method for protecting renal tubular epithelial cells from radiocontrast nephropathy (RCN)” (Caritas St. Elizabeth's Medical Center of Boston, Inc., priority 2006, published 2010)
# For at least one compound, name, drawing or mass did not settle the structure.
# System: caspase-3
# Assay: Caspase-3 activity (Caspase-Glo 3/7) in LLC-PK1 cells after radiocontrast media
# Format: cell-based, porcine
# Settings: 100 mg iodine/ml
# Protocol: Activity of caspase-3 was measured by the degradation of subtype-specific peptide substrate after exposure of LLC-PK1 cells to iohexol or iodixanol. In brief, cells were seeded in 96-well plates and treated with radiocontrast media as described. After removal of the media, 100 μl of the Caspase-Glo 3/7 reagent (Promega, Madison, Wis.) were added to each well, and cells were incubated at room temperature for 1 hour. Luminescence of each sample was measured on a luminometer (Lumat LB9507, EGG Berthold). As a control for specificity, DEVD-CHO (Calbiochem, EMD Biosciences), a caspase-3 inhibitor, was added to appropriate wells during incubation in a final concentration of 50 μM. In parallel, cells were stained in wells with crystal violet and the absorption at 600 nm was measured. For each well, the luminometer data were normalized to the level of crystal violet absorption.
smiles,measurement,value
CC(=O)N(CC(O)CO)c1c(I)c(C(=O)NCC(O)CO)c(I)c(C(=O)NCC(O)CO)c1I (stereo not shown) [iohexol],effect on caspase-3 activity,induced an increase
